Source: patent US20180177890A1 (priority 2015, published 2018)

assay: general procedure: solution-phase peptide synthesis; 2-(7-azobenzotriazole)-N,N,N',N'-tetramethyluronium hexafluorophosphate (HATU); settings: conjugation step

Substance	conjugation yield [%]
(S)-2-((2R,3R)-3-((S)-1-((3R,4S,5S)-4-((S)-2-((S)-2-(6-(2,5-dioxo-2,5-dihydro-1H-pyrrol-1-yl)-N-methylhexanamido)-3-methylbutanamido)-N,3-dimethylbutanamido)-3-methoxy-5-methylheptanoyl)-4-methylenepyrrolidin-2-yl)-3-methoxy-2-methylpropanamido)-3-phenylpropanoic acid	4.6
(S)-2-((2R,3R)-3-((2S,5S)-1-((3R,4S,5S)-4-((S)-2-((S)-2-(6-(2,5-dioxo-2,5-dihydro-1H-pyrrol-1-yl)-N-methylhexanamido)-3-methylbutanamido)-N,3-dimethylbutanamido)-3-methoxy-5-methylheptanoyl)-5-methylpyrrolidin-2-yl)-3-methoxy-2-methylpropanamido)-3-phenylpro	30.9
(S)-2-((2R,3R)-3-((1S,3S,5S)-2-((3R,4S,5S)-4-((S)-2-((S)-2-(6-(2,5-dioxo-2,5-dihydro-1H-pyrrol-1-yl)-N-methylhexanamido)-3-methylbutanamido)-N,3-dimethylbutanamido)-3-methoxy-5-methylheptanoyl)-2-azabicyclo[3 0.1.0]hexan-3-yl)-3-methoxy-2-methylpropanamido)-3-phen	42

same assay, conditions: coupling step

Substance	step yield [%]
(S)-tert-butyl 2-((2R,3R)-3-((S)-5-((5S,8S,11S,12R)-11-((S)-sec-butyl)-1-(9H-fluoren-9-yl)-5,8-diisopropyl-12-methoxy-4,10-dimethyl-3,6,9-trioxo-2-oxa-4,7,10-triazatetradecan-14-oyl)-5-azaspiro[2.4]heptan-6-yl)-3-methoxy-2-methylpropanamido)-3-(2-fluorophenyl)propan	53.4
(S)-methyl 2-((2R,3R)-3-((S)-1-((5S,8S,11S,12R)-11-((S)-sec-butyl)-5,8-diisopropyl-12-methoxy-4,10-dimethyl-3,6,9-trioxo-1-phenyl-2-oxa-4,7,10-triazatetradecan-14-oyl)pyrrolidin-2-yl)-3-methoxy-2-methylpropanamido)-3-(4-fluorophenyl)propanoate	84.6
(S)-tert-butyl 2-((2R,3R)-3-((1S,3S,5S)-2-((5S,8S,11S,12R)-11-((S)-sec-butyl)-1-(9H-fluoren-9-yl)-5,8-diisopropyl-12-methoxy-4,10-dimethyl-3,6,9-trioxo-2-oxa-4,7,10-triazatetradecan-14-oyl)-2-azabicyclo[3.1.0]hexan-3-yl)-3-methoxy-2-methylpropanamido)-3-phenylp	54.9
(S)-tert-butyl 2-((2R,3R)-3-((S)-1-((5S,8S,11S,12R)-11-((S)-sec-butyl)-1-(9H-fluoren-9-yl)-5,8-diisopropyl-12-methoxy-4,10-dimethyl-3,6,9-trioxo-2-oxa-4,7,10-triazatetradecan-14-oyl)-4-methylenepyrrolidin-2-yl)-3-methoxy-2-methylpropanamido)-3-phenylpropanoate	64.7
(S)-tert-butyl 2-((2R,3R)-3-((1S,3S,5S)-2-((5S,8S,11S,12R)-11-sec-butyl-1-(9H-fluoren-9-yl)-5,8-diisopropyl-12-methoxy-4,10-dimethyl-3,6,9-trioxo-2-oxa-4,7,10-triazatetradecane)-2-azabicyclo[3.1.0]hexan-3-yl)-3-methoxy-2-methylpropanamido)-3-(2-chlorophenyl)propanoat	53.1
(S)-tert-butyl 2-((2R,3R)-3-((S)-1-((5S,8S,11S,12R)-11-((S)-sec-butyl)-1-(9H-fluoren-9-yl)-5,8-diisopropyl-12-methoxy-4,10-dimethyl-3,6,9-trioxo-2-oxa-4,7,10-triazatetradecan-14-oyl)pyrrolidin-2-yl)-3-methoxy-2-methylpropanamido)-3-(2-fluorophenyl)propanoate	96.5

same assay, conditions: late stage modification step

Substance	step yield [%]
(S)-2-((2R,3R)-3-((S)-5-((3R,4S,5S)-4-((S)—N,3-dimethyl-2-((S)-3-methyl-2-(methylamino)butanamido)butanamido)-3-methoxy-5-methylheptanoyl)-5-azaspiro[2.4]heptan-6-yl)-3-methoxy-2-methylpropanamido)-3-(2-fluorophenyl)propanoic acid	96
(S)-3-(2-chlorophenyl)-2-((2R,3R)-3-((1S,3S,5S)-2-((3R,4S,5S)-4-((S)—N,3-dimethyl-2-((S)-3-methyl-2-(methylamino)butanamido)butanamido)-3-methoxy-5-methylheptanoyl)-2-azabicyclo[3.1.0]hexan-3-yl)-3-methoxy-2-methylpropanamido)propanoic acid	35.7
(S)-2-((2R,3R)-3-((S)-1-((3R,4S,5S)-4-((S)—N,3-dimethyl-2-((S)-3-methyl-2-(methylamino)butanamido)butanamido)-3-methoxy-5-methylheptanoyl)-4-methylenepyrrolidin-2-yl)-3-methoxy-2-methylpropanamido)-3-phenylpropanoic acid	11.9
(S)-2-((2R,3R)-3-((1S,3S,5S)-2-((3R,4S,5S)-4-((S)—N,3-dimethyl-2-((S)-3-methyl-2-(methylamino)butanamido)butanamido)-3-methoxy-5-methylheptanoyl)-2-azabicyclo[3.1.0]hexan-3-yl)-3-methoxy-2-methylpropanamido)-3-(2-fluorophenyl)propanoic acid	20
(S)-2-((2R,3R)-3-((S)-1-((3R,4S,5S)-4-((S)—N,3-dimethyl-2-((S)-3-methyl-2-(methylamino)butanamido)butanamido)-3-methoxy-5-methylheptanoyl)pyrrolidin-2-yl)-3-methoxy-2-methylpropanamido)-3-(2-fluorophenyl)propanoic acid	28.4
(S)-2-((2R,3R)-3-((2S,4S)-1-((3R,4S,5S)-4-((S)—N,3-dimethyl-2-((S)-3-methyl-2-(methylamino)butanamido)butanamido)-3-methoxy-5-methylheptanoyl)-4-fluoropyrrolidin-2-yl)-3-methoxy-2-methylpropanamido)-3-phenylpropanoic acid	21.5
(S)-2-((2R,3R)-3-((S)-1-((3R,4S,5S)-4-((S)—N,3-dimethyl-2-((S)-3-methyl-2-(methylamino)butanamido)butanamido)-3-methoxy-5-methylheptanoyl)pyrrolidin-2-yl)-3-methoxy-2-methylpropanamido)-3-(4-fluorophenyl)propanoic acid	25.2
(S)-2-((2R,3R)-3-((1S,3S,5S)-2-((3R,4S,5S)-4-((S)—N,3-dimethyl-2-((S)-3-methyl-2-(methylamino)butanamido)butanamido)-3-methoxy-5-methylheptanoyl)-2-azabicyclo[3.1.0]hexan-3-yl)-3-methoxy-2-methylpropanamido)-3-phenylpropanoic acid	22.7
(S)-2-((2R,3R)-3-((2S,5S)-1-((3R,4S,5S)-4-((S)—N,3-dimethyl-2-((S)-3-methyl-2-(methylamino)butanamido)butanamido)-3-methoxy-5-methylheptanoyl)-5-methylpyrrolidin-2-yl)-3-methoxy-2-methylpropanamido)-3-phenylpropanoic acid	23
